# These are yes or no findings as the source states them, for the method shown. Binding seen in cells or lysates may run through a third protein. Binding can be weak; no strength is given.
# T1: NAB2 (NGFI-A Binding Protein 2) (UniProt Q15742)
# T1 sequence: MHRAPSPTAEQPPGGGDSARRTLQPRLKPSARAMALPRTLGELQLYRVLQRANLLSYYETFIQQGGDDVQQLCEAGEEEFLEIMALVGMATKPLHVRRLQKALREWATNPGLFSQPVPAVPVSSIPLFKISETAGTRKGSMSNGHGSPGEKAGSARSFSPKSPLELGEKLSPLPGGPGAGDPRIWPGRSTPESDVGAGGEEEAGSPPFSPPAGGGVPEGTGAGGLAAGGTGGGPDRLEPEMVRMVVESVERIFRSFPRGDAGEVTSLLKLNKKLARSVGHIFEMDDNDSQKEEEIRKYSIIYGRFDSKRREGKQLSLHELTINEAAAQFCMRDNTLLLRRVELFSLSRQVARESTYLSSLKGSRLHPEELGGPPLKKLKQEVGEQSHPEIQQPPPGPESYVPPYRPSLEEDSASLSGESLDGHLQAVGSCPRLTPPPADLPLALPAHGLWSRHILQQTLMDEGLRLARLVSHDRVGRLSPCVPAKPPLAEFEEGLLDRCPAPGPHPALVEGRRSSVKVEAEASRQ
# B1: NAB2 (NGFI-A Binding Protein 2) (protein, UniProt Q15742-1 1-525)
# chain: T1 sequence
# How the values were obtained:
# [1] = molecular target: T1, NAB2 (NGFI-A Binding Protein 2); assay: co-IP; nuclear extracts of 293T/17 cells 48 h after transfection with WT1 or WT1 plus NAB2 (Nuclear Complex Co-IP kit); IP with anti-WT1 (C-19) or anti-NAB2 (1C4) overnight at 4°C in 1 × High IP buffer, Protein G agarose column, immunoblot
# [2] = molecular target: Wilms' tumor gene 1 protein, WT1+17AA/-KTS isoform (UniProt P19544); assay: as above
Molecule,binding [1],binding [2]
"Wilms' tumor gene 1 protein, WT1+17AA/-KTS isoform (from UniProt P19544-4)",binds,–
B1,–,binds

# Reference: paper PMC5675621
